In patent publication US10568822B2, “Melanogenesis inhibitor comprising d-pantothenyl alcohol, and skin-whitening cosmetic containing same melanogenesis inhibitor” (POLA CHEMICAL INDUSTRIES, INC., priority 2014, dated 2020):
At least one structure is not confirmed: it was looked up by name or label, or the drawing left a doubt.

What was measured:
human normal melanocytes = assay: Melanogenesis inhibition experiment (14C-2-thiouracil incorporation); assay type: cell-based; conditions: in combination with D-pantothenyl alcohol; conclusion from Table 2
Protocol: According to the method described below, 2-thiouracil (^14C-labeled 2-thiouracil in the present test) which is specifically incorporated into melanin in the melanin synthesis process within cells was used to evaluate the melanogenesis inhibitory action. With a complete medium for melanocyte culture (Invitrogen Corporation) used in a 24-well plate, human normal melanocytes (Kurabo Industries, Ltd.) were seeded in each well at a concentration of 6.0×10^4 cells/well/0.5 mL. Under a 5% carbon dioxide atmosphere, the culture was conducted at 37° C. for 24 hours. Then, replacement was made such that a 0.5 mL medium containing D-pantothenyl alcohol at 0 mM or 1 mM was in each of three wells for each concentration and, to these […] wells, 0.5 μCi/well of 2-[2-^14C] thiouracil (Daiichi Clarity Co., Ltd.) was further added. And it was further cultured for 3 days under the same conditions as the aforementioned culture conditions. After completion of the culture, the culture medium was removed from each well, which was washed with PBS (phosphate-buffered saline), and the number of cells was measured using the WST-8 reagent (Dojindo Laboratories). […] After the cells were recovered by centrifugation, the amount of ^14C-thiouracil in the cells recovered from each well was measured with a liquid scintillation counter (Aloka Co., Ltd.). […]

[1] = test system: human normal keratinocytes; assay: Keratinocyte cell proliferation experiment (WST-8); assay type: cell-based; conditions: in combination with D-pantothenyl alcohol; conclusion from Table 2
Protocol: According to the method described below, the cell proliferation promoting action was evaluated. With a complete medium for keratinocyte culture (Kurabo Industries, Ltd.) used in a 24-well plate, human normal keratinocytes (Kurabo Industries, Ltd.) were seeded in each well at a concentration of 1.0×10^4 cells/well/1 mL. Under a 5% carbon dioxide atmosphere, the culture was conducted at 37° C. for 24 hours. Then, replacement was made such that a 1 mL medium containing D-pantothenyl alcohol at 0 μM, 15 μM, or 150 μM was in each of three wells for each concentration. And it was further cultured for 2 days under the same conditions as the aforementioned culture conditions. After completion of the culture, 20 μL of the WST-8 reagent (Dojindo Laboratories) was added to each well, and color reaction was allowed at 37° C. for 3 hours. After the reaction, absorbances at 450 nm and 650 nm were measured using a microplate reader, Benchmark Plus (Bio-Rad Laboratories), and the 450 nm absorbance measurement minus the 650 nm absorbance measurement was calculated to give a cell proliferation measurement. […]

CSCCC(NC(=O)c1ccc(C)cc1)C(=O)O (centres unmarked) [Compound 45, N-(toluyl) methionine]
synergistic effect of a melanogenesis inhibitory action (human normal melanocytes): synergistic effect | synergistic effect of a keratinocyte cell proliferation action [1]: synergistic effect
